Values from PubChem BioAssay AID504808 (Drosophila RNAi Screening Center, 2011)
The screen tested about 21,000 reagents; shown is a random part of those that have a named target and a result. Over the whole deposit, 18 (0.084%) got an active call. 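Raw counts without plate normalisation, one of two replicates; the ratio scores behind the calls were not deposited.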 The numbers tell different reagents against one gene apart. The record does not give: the amount of reagent, the time to read-out.

- Screen: 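Chromatin factors that keep E2F targets switched off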 (primary screen)
- Cell system: Drosophila S2 cells
- Reagent: long dsRNA against Drosophila genes
- Measurement: 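Dual luciferase plate measurements; E2F-specific signal taken as firefly over Renilla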
- Direction: E2F firefly: higher = more E2F reporter activity; Renilla normaliser: higher = more normaliser reporter signal
- Call rule: 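Called active if the normalised E2F reporter went up by over 50%; the cutoff is arbitrary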

{"gene":"CheB38c (Chemosensory protein B 38c)","reagent":1,"E2F firefly, rep 1":1.09e5,"Renilla normaliser, rep 1":4810,"activity call":"inactive"}
{"gene":"CG12605","reagent":1,"E2F firefly, rep 1":96838,"Renilla normaliser, rep 1":4389,"activity call":"inactive"}
{"gene":"CG3600 (retired record)","reagent":1,"E2F firefly, rep 1":90943,"Renilla normaliser, rep 1":5604,"activity call":"inactive"}
{"gene":"CG14570","reagent":1,"E2F firefly, rep 1":1.40e5,"Renilla normaliser, rep 1":7505,"activity call":"inactive"}
{"gene":"beat-IIa (beaten path IIa)","reagent":1,"E2F firefly, rep 1":1.15e5,"Renilla normaliser, rep 1":6115,"activity call":"inactive"}
{"gene":"beat-IIa (beaten path IIa)","reagent":2,"E2F firefly, rep 1":1.18e5,"Renilla normaliser, rep 1":7202,"activity call":"inactive"}
{"gene":"CG8509","reagent":1,"E2F firefly, rep 1":7559,"Renilla normaliser, rep 1":660,"activity call":"inactive"}
{"gene":"CG30002","reagent":1,"E2F firefly, rep 1":1.40e5,"Renilla normaliser, rep 1":6488,"activity call":"inactive"}
{"gene":"CG17896","reagent":1,"E2F firefly, rep 1":1951,"Renilla normaliser, rep 1":1040,"activity call":"inactive"}
{"gene":"tsr (twinstar)","reagent":1,"E2F firefly, rep 1":1.20e5,"Renilla normaliser, rep 1":5148,"activity call":"inactive"}
{"gene":"CkIIalpha (casein kinase IIalpha)","reagent":1,"E2F firefly, rep 1":1.20e5,"Renilla normaliser, rep 1":7596,"activity call":"inactive"}
{"gene":"CG33639","reagent":1,"E2F firefly, rep 1":1.57e5,"Renilla normaliser, rep 1":6883,"activity call":"inactive"}
{"gene":"Cpr65Ec (Cuticular protein 65Ec)","reagent":1,"E2F firefly, rep 1":88506,"Renilla normaliser, rep 1":3650,"activity call":"inactive"}
{"gene":"CG4459","reagent":1,"E2F firefly, rep 1":1.45e5,"Renilla normaliser, rep 1":8116,"activity call":"inactive"}
{"gene":"Pkc98E (Protein C kinase 98E)","reagent":1,"E2F firefly, rep 1":2002,"Renilla normaliser, rep 1":1024,"activity call":"inactive"}
{"gene":"OdsH (Ods-site homeobox)","reagent":1,"E2F firefly, rep 1":1.54e5,"Renilla normaliser, rep 1":6574,"activity call":"inactive"}
{"gene":"CG5302 (retired record)","reagent":1,"E2F firefly, rep 1":1.25e5,"Renilla normaliser, rep 1":6012,"activity call":"inactive"}
{"gene":"CG5302 (retired record)","reagent":2,"E2F firefly, rep 1":1.19e5,"Renilla normaliser, rep 1":6131,"activity call":"inactive"}
{"gene":"CG17385","reagent":1,"E2F firefly, rep 1":89869,"Renilla normaliser, rep 1":3467,"activity call":"inactive"}
{"gene":"Rnmt (RNA guanine-7 methyltransferase)","reagent":1,"E2F firefly, rep 1":1.07e5,"Renilla normaliser, rep 1":4547,"activity call":"inactive"}
{"gene":"lqfR (liquid facets-Related)","reagent":1,"E2F firefly, rep 1":61679,"Renilla normaliser, rep 1":2882,"activity call":"inactive"}
{"gene":"lqfR (liquid facets-Related)","reagent":2,"E2F firefly, rep 1":1.33e5,"Renilla normaliser, rep 1":6936,"activity call":"inactive"}
{"gene":"Sam-S (S-adenosylmethionine Synthetase)","reagent":1,"E2F firefly, rep 1":1.01e5,"Renilla normaliser, rep 1":3398,"activity call":"inactive"}
{"gene":"CG9040","reagent":1,"E2F firefly, rep 1":1.69e5,"Renilla normaliser, rep 1":7867,"activity call":"inactive"}
{"gene":"5-HT2A (5-hydroxytryptamine (serotonin) receptor 2A)","reagent":1,"E2F firefly, rep 1":74824,"Renilla normaliser, rep 1":3490,"activity call":"inactive"}
{"gene":"CG14354","reagent":1,"E2F firefly, rep 1":95581,"Renilla normaliser, rep 1":6072,"activity call":"inactive"}
{"gene":"Tdc2 (Tyrosine decarboxylase 2)","reagent":1,"E2F firefly, rep 1":1.01e5,"Renilla normaliser, rep 1":3572,"activity call":"inactive"}
{"gene":"CG6041","reagent":1,"E2F firefly, rep 1":1.12e5,"Renilla normaliser, rep 1":5392,"activity call":"inactive"}

4 consecutive records from above, for reference:
{"gene":"lqfR (liquid facets-Related)","reagent":2,"E2F firefly, rep 1":1.33e5,"Renilla normaliser, rep 1":6936,"activity call":"inactive"}
{"gene":"Sam-S (S-adenosylmethionine Synthetase)","reagent":1,"E2F firefly, rep 1":1.01e5,"Renilla normaliser, rep 1":3398,"activity call":"inactive"}
{"gene":"CG9040","reagent":1,"E2F firefly, rep 1":1.69e5,"Renilla normaliser, rep 1":7867,"activity call":"inactive"}
{"gene":"5-HT2A (5-hydroxytryptamine (serotonin) receptor 2A)","reagent":1,"E2F firefly, rep 1":74824,"Renilla normaliser, rep 1":3490,"activity call":"inactive"}
